Source: article PMC8635973
No constants are given. Whether binding was seen depends on the method and setting. Binding seen in cells or lysates may run through a third protein. Here binding means that the protein was enriched with, or labelled near, the bait; the list need not be complete.

By UniProt entry, the sequences of proteins in these tests, tags left out. Where a name states a change or a piece, a line headed by the entry shows the natural chain unless it says otherwise.
UniProt Q9Y5K5: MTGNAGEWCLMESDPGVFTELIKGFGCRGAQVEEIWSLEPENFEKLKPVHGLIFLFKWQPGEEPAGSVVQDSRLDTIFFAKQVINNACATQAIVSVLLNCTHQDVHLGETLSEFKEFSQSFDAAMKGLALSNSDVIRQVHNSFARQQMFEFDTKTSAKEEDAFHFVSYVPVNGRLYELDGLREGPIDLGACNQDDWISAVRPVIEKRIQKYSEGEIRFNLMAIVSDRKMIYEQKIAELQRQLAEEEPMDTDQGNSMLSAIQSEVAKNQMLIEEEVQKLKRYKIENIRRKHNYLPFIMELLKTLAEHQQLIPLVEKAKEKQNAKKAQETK
UniProt Q16401: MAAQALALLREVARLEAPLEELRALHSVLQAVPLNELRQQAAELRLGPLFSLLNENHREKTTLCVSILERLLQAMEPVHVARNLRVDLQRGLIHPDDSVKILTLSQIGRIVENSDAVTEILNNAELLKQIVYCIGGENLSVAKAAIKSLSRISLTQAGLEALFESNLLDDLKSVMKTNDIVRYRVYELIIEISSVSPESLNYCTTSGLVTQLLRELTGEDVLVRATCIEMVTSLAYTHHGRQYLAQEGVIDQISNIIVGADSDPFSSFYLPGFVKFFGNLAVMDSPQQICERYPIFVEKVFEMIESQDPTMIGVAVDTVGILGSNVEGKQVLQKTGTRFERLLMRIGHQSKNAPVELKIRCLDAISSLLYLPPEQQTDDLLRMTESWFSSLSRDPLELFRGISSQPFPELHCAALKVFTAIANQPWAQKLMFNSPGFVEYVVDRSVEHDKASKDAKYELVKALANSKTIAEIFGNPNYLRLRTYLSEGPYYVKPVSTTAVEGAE
UniProt O75832: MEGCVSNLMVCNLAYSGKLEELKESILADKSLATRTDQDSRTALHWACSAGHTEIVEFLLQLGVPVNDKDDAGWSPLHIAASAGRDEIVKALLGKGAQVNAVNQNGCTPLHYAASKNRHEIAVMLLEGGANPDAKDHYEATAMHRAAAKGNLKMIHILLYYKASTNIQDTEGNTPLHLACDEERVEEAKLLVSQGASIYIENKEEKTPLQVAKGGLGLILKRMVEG
UniProt P54727: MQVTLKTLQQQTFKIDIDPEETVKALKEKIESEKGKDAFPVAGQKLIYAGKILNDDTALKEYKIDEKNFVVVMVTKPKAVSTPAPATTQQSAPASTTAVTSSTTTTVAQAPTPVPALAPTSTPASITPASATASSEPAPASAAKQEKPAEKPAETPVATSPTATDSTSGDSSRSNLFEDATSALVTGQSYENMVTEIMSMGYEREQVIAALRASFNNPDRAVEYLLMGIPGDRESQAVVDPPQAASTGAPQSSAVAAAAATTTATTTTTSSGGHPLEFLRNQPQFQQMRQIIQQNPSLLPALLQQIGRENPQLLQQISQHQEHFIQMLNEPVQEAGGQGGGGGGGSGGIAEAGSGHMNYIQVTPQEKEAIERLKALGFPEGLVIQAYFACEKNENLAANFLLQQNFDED

Target: Flag-GFP-UCH37(C88S) (UniProt Q9Y5K5)
Assay: affinity purification with mass spectrometry; HCT116 cells crosslinked with 0.025 % formaldehyde, lysed with ATP; anti-GFP nanobody on Sepharose, 2 hr 4 °C; on-bead digestion, TMT10plex, LC–MS/MS; abundances normalised to the WT sample and to the 19S subunits

binding	Substance
binds	PSMD5 (from UniProt Q16401 1-504)
binds	PSMD10 (from UniProt O75832 1-226)
binds	RAD23B (endogenous) (from UniProt P54727 1-409)
